# Test: Permeability of the compound incubated for 4 hrs by PAMPA-BBB assay based HPLC analysis
structure (smiles),measurement,value
COc1cc2c(cc1OC)C(=O)C(CC1CCN(Cc3ccccc3)CC1)C2 (stereo unspecified) [DONEPEZIL],Papp at 4 h,30.3 ×10⁻⁶ cm/s
